For at least one entry, the source does not settle the construct or the ends of the probe. At least one verdict rests on a figure or table, not on a statement of the authors. For some assays here: Protein sequences can lack the tags named with them.
Molecular target: T1, Distal-less (Dll) (Drosophila melanogaster) (UniProt P20009)
T1 sequence (looked up): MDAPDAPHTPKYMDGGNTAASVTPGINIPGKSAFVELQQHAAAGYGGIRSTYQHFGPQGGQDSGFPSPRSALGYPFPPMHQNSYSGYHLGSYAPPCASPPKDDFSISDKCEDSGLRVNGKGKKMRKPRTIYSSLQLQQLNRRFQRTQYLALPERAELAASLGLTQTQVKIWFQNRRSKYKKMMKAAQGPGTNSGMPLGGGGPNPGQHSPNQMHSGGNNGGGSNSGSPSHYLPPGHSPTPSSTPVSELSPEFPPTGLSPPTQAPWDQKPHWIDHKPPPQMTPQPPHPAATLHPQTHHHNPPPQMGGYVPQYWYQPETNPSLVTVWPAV
Test: EMSA
Settings: EMSA as previously described (ref 53); pH and temperature not given; recombinant protein; residues 1-327; protein details: His

The chains behind the UniProt entries cited, without tags or fusion partners. Residues count along the entry.
UniProt P42003, 26-150: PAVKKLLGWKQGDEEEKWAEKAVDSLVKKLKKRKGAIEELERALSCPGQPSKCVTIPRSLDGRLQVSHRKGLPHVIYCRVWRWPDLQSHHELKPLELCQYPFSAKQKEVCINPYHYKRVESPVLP
UniProt Q9U1K4, entry or part of it: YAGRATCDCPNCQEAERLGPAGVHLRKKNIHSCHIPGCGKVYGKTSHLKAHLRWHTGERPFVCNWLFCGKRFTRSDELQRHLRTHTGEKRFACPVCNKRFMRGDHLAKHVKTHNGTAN

Binding result, binds:
AACTCGCTAAATATTTCAGTTAACGCTTTGGTGGTCCGGAGAGGTCGCCTCC (double strand) [vnE Dll site 4]
ATGCGCAAATTATATGGCCAAGACTGGACGGCGGACCCGGAGAGGTCGCCTCC (double strand) [vnE Dll site 8]
CAGCTTTTGCTGGCGCTGCTTAATAAACAATCATCAGCAACAACGGAGAGGTCGCCTCC (double strand) [vnE Dll sites 9 and 10]
CAGGCCGGGGTGGGATGGATAAAATGCACTTCCTGCTGGCCGGAGAGGTCGCCTCC (double strand) [vnE Dll site 1 / Sp1 site 2]
CGAAGTCAGCTCTCAATCATAAATGAATCATGCGCACGGAGAGGTCGCCTCC (double strand) [vnE Dll site 7]
GACGCTGACGGGTTTTGTATAAACAAGTCGAAGTCAGCTCTCCGGAGAGGTCGCCTCC (double strand) [vnE Dll site 6]
GGCTTCCTGGAAATCAAAGAGACAAACTCGCCGGAGAGGTCGCCTCC (double strand) [vnE Dll site 3]
GGTCTTGGCCTATAATTTGCTGCTGTTGCTGCCGGAGAGGTCGCCTCC (double strand) [vnE Dll site 5]
TGCTGGCGGCCACGTCGGTGCCGAGGAGCTTAATTAAAGAGCGCGGAGAGGTCGCCTCC (double strand) [vnE Dll site 2]

Molecular target: T2, Pan HMG domain (Drosophila melanogaster) (UniProt P91943)
T2 sequence (looked up, limits assumed): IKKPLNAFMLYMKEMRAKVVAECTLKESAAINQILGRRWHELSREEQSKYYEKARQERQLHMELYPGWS
Test: EMSA
Settings: EMSA as previously described (ref 53); pH and temperature not given; recombinant protein; protein details: His

Binding result, binds:
CCTGGAAATCAAAGAGGCGGAGAGGTCGCCTCC (double strand) [vnE Pan site 4]

Molecular target: Mad MH1 domain (Drosophila melanogaster) (UniProt P42003)
Test: EMSA
Settings: EMSA as previously described (ref 53); pH and temperature not given; recombinant protein; protein details: His

Binding result, binds:
CACGTCGGTGCCGAGGTAAAGTTATTCATTG (double strand) [vnE Mad site 5]
TCCTGCTGGCGGCCAGTAAAGTTATTCATTG (double strand) [vnE Mad site 4]

Molecular target: Sp1 zinc-finger fragment (Drosophila melanogaster) (UniProt Q9U1K4)
Test: EMSA
Settings: EMSA as previously described (ref 53); pH and temperature not given; recombinant protein; protein details: His

Binding result, binds:
CAGGCCGGGGTGGGATGGATAAAATGCACTTCCTGCTGGCCGGAGAGGTCGCCTCC (double strand) [vnE Dll site 1 / Sp1 site 2]
GTGTATTTGTGGGCGGCAGGAGCAGCTACCCAGAGGTGAACGGAGAGGTCGCCTCC (double strand) [vnE Sp1 site 1 / scanning Oligo 14]

From article PMC6147608
